Primary screen of a compound library

Mtb growth Cornell: 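Whole-cell assay for inhibitors of Mycobacterium tuberculosis growth, labelled Cornell in the record; the read-out is not stated. The concentration is filed as 10 mM, unlikely as a test dose, so the dose is not known. The record gives no direction; compounds strong in two other growth screens of this library score well above the rest, so higher reads as stronger inhibition. About 53,000 compounds were tested under these conditions; 1.7% (about 900) showed 50% or more at least once.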
Mtb heat-shock: 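Assay on Mycobacterium tuberculosis, filed only as a heat shock assay from Cornell; the read-out is not stated. The concentration is filed as 10 mM, unlikely as a test dose, so the dose is not known. Higher reads as stronger inhibition (inferred: compounds with an IC50 in retests scored well above the rest). Size under these conditions: about 69,000 compounds, about 930 of them at 50% or above in at least one test.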

Values are the deposited “Percent Effect”, in %. How 0% and 100% were set is not recorded. Most values in the screen are low, and negative values occur. The compounds are a random part of those screened. A dash means the value is not listed here; it may have been measured.

| # | compound | Mtb growth Cornell | Mtb heat-shock |
|---|---|---|---|
| 1 | `CCn1ncc(C(=O)NCCc2nc(-c3cccnc3)n[nH]2)c1C` | -11.68 | -7.17 |
| 2 | `O=C(NCCN1CCOCC1)c1ccc(-c2ccccc2)[nH]c1=O` | 8.231 | -9.788 |
| 3 | `COc1ccccc1C(O)CNC(=O)Nc1ccccn1` (stereo not drawn) | - | -14.12 |
| 4 | `Cc1ccc(CN(Cc2ccccn2)C2CC(C)(C)NC(C)(C)C2)s1.O=C(O)CC(O)(CC(=O)O)C(=O)O` | 1.817 | -7.589 |
| 5 | `CCCc1cc(N2CCCC2Cn2cc(C)cn2)n2ncnc2n1` (stereo not drawn) | 12.49 | 11.36 |
| 6 | `Cc1nc2cc(C3CCN(Cc4cccc(F)c4F)C3)nn2c(O)c1C.O=C(O)CC(O)(CC(=O)O)C(=O)O` (stereo not drawn) | 22.26 | -4.906 |
| 7 | `COc1cccc(CN2CCC(c3nnc(-c4cnc(C)cn4)o3)C2)c1` (stereo not drawn) | -42.01 | -7.416 |
| 8 | `COc1ccccc1-c1cc(NC(=O)CCC2CCCO2)[nH]n1` (stereo not drawn) | 12.82 | -6.492 |
| 9 | `Cc1ccc(NC(=O)C2CSCN2C(=O)c2cnn(C)c2)c(C)c1` (stereo not drawn) | 23.06 | -0.546 |
| 10 | `CCc1nc(CN2CCCN(C(=O)c3cncnc3C)CC2)cs1` | 21.84 | 8.001 |
| 11 | `O=C(NC[C@H]1OC[C@@H](NC2CCC(F)(F)CC2)[C@@H]1O)N1CCOCC1` | 13.02 | -4.623 |
| 12 | `CNC(=O)c1cc2c(nc1NCC(C)C)CCN(C)CC2.O=C(O)C(F)(F)F.O=C(O)C(F)(F)F` | 11.79 | 5.017 |
| 13 | `COc1ccc(CNC(C)Cn2cccn2)cc1F` (stereo not drawn) | -1.424 | -3.821 |
| 14 | `O=C1OCCC1N1CCN(c2ccccn2)CC1` (stereo not drawn) | -26.81 | -9.661 |
| 15 | `N#CC1(NC(=O)COC(=O)Cc2cc(Cl)c3c(c2)OCCO3)CCCC1` | -32.82 | -36.22 |
| 16 | `N#Cc1cccc(N2CCCC3(CN(C(=O)NC4CC4)CCO3)C2)c1` (stereo not drawn) | 14.91 | -12.96 |
| 17 | `Cn1c(SCC(N)=O)nnc1-c1csc2c1CCCC2` | 28.73 | 24.02 |
| 18 | `Cc1cn2c(n1)CCC(NC(=O)CCOc1ccccc1F)C2` (stereo not drawn) | -34.23 | -22.92 |
| 19 | `c1ccc(-c2nc(CNC3CCc4ncnn4C3)no2)cc1` (stereo not drawn) | -8.442 | -20.36 |
| 20 | `CN(C)S(=O)(=O)CCCOc1cccc(-n2ccnc2)c1` | -9.829 | -2.379 |
| 21 | `Cc1ccc(C)c(OC2CCN(C(=O)NCC(=O)N3CCCC3)CC2)c1` | -8.907 | 18.13 |
| 22 | `O=C(O)C1c2nc[nH]c2CCN1Cc1cc(-c2ccccc2)no1` (stereo not drawn) | 27.69 | 7.425 |
| 23 | `O=C(c1ccoc1)N1CCCCC1c1nc[nH]n1` (stereo not drawn) | 14.03 | 9.072 |
| 24 | `OCCN1CCN(Cc2cc(Cl)cc3cccnc23)CC1` | -20.78 | -35.61 |
| 25 | `O=C(CCNc1ncccn1)NCCc1ccc(Cl)s1` | -9.717 | 9.123 |
| 26 | `CCn1c(-c2ccccc2)nn(CC(=O)NCCc2ccc(C)o2)c1=O` | - | 20.24 |
| 27 | `N#Cc1ccnc(N2CCN(C(=O)Cc3ccc4c(c3)CCO4)CC2)c1` | - | 5.479 |
| 28 | `N#Cc1cccc(Oc2ccc(CN3CCCC3)cc2Cl)n1` | 9.781 | 1.148 |
| 29 | `CCC1(CC)C(=O)NC(=O)N=C1Nc1ccc(C)cc1` | -59.72 | 13.65 |
| 30 | `CCCC(=O)NC1CCCN(C(=O)c2ccc(C)nc2)C1` (stereo not drawn) | - | -4.095 |
| 31 | `CN(CCc1ccc2c(c1)CCO2)CC1CCS(=O)(=O)C1` (stereo not drawn) | - | -3.647 |
| 32 | `COc1ccccc1C(C)CC(=O)N1CC[C@H](O)C1` (stereo partly drawn) | -59.53 | 4.456 |
| 33 | `CCc1[nH]n(C)c(=N)c1-c1ccc2c(c1)OCO2` | 2.116 | -53.77 |
| 34 | `O=C(NC1CC1)c1ccnc(-c2cc(NCCO)nc3[nH]ccc23)c1` | - | -23.16 |
| 35 | `CN1CC2(CCN(C(=O)CCc3nc4cccnc4n3C)C2)OC1=O` (stereo not drawn) | -33.4 | -7.81 |
| 36 | `CC(=O)N1CCC(c2nccnc2Nc2ncc(C)s2)CC1` | 21.23 | 55.53 |
| 37 | `[H][C@]12CCN(S(C)(=O)=O)[C@@]1([H])C[C@@H](C(=O)Nc1nc(C)cs1)O2` | -2.185 | 5.874 |
| 38 | `Cc1nc(CNC(=O)NCc2cccnc2N(C)C)cs1` | - | -12.99 |
| 39 | `CC(C)Oc1cccc(CC(=O)NC2CCN(CC(N)=O)CC2)c1` | - | 0.4577 |
| 40 | `Cn1c(CCNc2nccnc2C#N)nc2cc(Cl)ccc21` | 17.19 | -3.646 |
| 41 | `COc1ccccc1CN(CC1CCCO1)C(=O)c1cc(C)n[nH]1` (stereo not drawn) | - | -6.895 |
| 42 | `CN(C)c1ccc(-c2cc(=O)n3c(n2)CCCCC3)cc1` | 38.93 | 1.718 |
| 43 | `CCOC(=O)c1sc2ccsc2c1CNC(=O)C(C)OC` (stereo not drawn) | - | 18.03 |
| 44 | `O=C(Cn1nc2c(cc1=O)CSCC2)N[C@@H](Cc1ccccc1)C(=O)O` | 34.39 | 13.17 |
| 45 | `Cc1nn(C)cc1CN(C)C(=O)c1ccncc1` | 3.965 | -6.011 |
| 46 | `CCN1CCCC(C)(C(=O)NCCCc2nc(C)cs2)C1` (stereo not drawn) | -30.95 | 1.446 |
| 47 | `O=C(Nc1cccs1)NC(CCCO)c1ccccc1` (stereo not drawn) | 101.4 | -19.9 |
| 48 | `COc1ccc(CC(=O)N2CCC(c3nncn3C)CC2)cc1F` | -2.334 | -13.52 |
| 49 | `CNC(=O)CN1CCC(OCc2ccc(Cl)c(Cl)c2)CC1` | -6.805 | -3.786 |
| 50 | `COc1cc(C(C)=O)ccc1SCC(=O)Nc1ccc(C)cn1` | 19.08 | 8.725 |
| 51 | `O=C(CCOc1ccc(Cl)cc1)N1CCN(c2cnccn2)CC1` | 30.58 | 24.62 |
| 52 | `Cc1csc(CNC(=O)CCCc2cccs2)n1` | 28.21 | 8.618 |
| 53 | `Cc1cnc(-c2nc(O)c3c(n2)CN(C(=O)C2CC2)CC3)cn1` | 0.463 | 10.73 |
| 54 | `CCn1ncnc1C1CC(=O)NCc2nc(N3CCOCC3)sc21` (stereo not drawn) | 3.2 | -0.9981 |
| 55 | `O=C(O)CC(O)(CC(=O)O)C(=O)O.[H][C@@]12CC[C@@](O)(c3ccc(C)cn3)[C@]1([H])CN(Cc1ccccc1F)C2` | 8.735 | -11.3 |
| 56 | `O=C(O)C(F)(F)F.[H][C@@]12C[C@@H](C(=O)NC(C)C)C[C@@]1([H])N(Cc1ccc(C)o1)CCO2` | 14.97 | -12.43 |
| 57 | `COc1cccc(CNC(=O)Cn2ccc3c(C)nn(C)c3c2=O)c1` | 4.678 | 9.081 |
| 58 | `CCN(Cc1ccc(C(C)C)cc1)C(=O)c1csc(CN(C)C)n1` | -18.18 | 4.298 |
| 59 | `Nc1nnc(CCCn2nnc(-c3ccccc3F)n2)s1` | - | -18.78 |

For reference, 6 entries once more:

For CCc1[nH]n(C)c(=N)c1-c1ccc2c(c1)OCO2 the result was Mtb growth Cornell: 2.116%; Mtb heat-shock: -53.77%.
For O=C(CCNc1ncccn1)NCCc1ccc(Cl)s1 the result was Mtb growth Cornell: -9.717%; Mtb heat-shock: 9.123%.
For COc1ccccc1C(O)CNC(=O)Nc1ccccn1 (stereo not drawn) the result was Mtb heat-shock: -14.12%.
For CC(=O)N1CCC(c2nccnc2Nc2ncc(C)s2)CC1 the result was Mtb growth Cornell: 21.23%; Mtb heat-shock: 55.53%.
For CCc1nc(CN2CCCN(C(=O)c3cncnc3C)CC2)cs1 the result was Mtb growth Cornell: 21.84%; Mtb heat-shock: 8.001%.
For Cc1nc2cc(C3CCN(Cc4cccc(F)c4F)C3)nn2c(O)c1C.O=C(O)CC(O)(CC(=O)O)C(=O)O (stereo not drawn) the result was Mtb growth Cornell: 22.26%; Mtb heat-shock: -4.906%.

The values are deposited in ChEMBL (CHEMBL3988442, “University of Dundee, Small-Polar-MMV Screening Library” (2021)).